# Screening data

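Uptake of anthrax lethal toxin into cultured cells, read by FRET (460/530 nm ratio) and reported from the 460 nm channel; the cell line is not named here.
Each compound was tested as a concentration series from about 0.0005 to 40 µM.
The number is the fitted AC50 of the 460 nm signal alone; lower values mean a more potent effect. A falling signal goes with compounds filed as inhibitors or cytotoxic, a rising one with activators or fluorescent compounds (inferred from the filed classes).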

Values are in µM.
Common to all entries: measured here: 460 nm channel.
Part of the compounds only, not a random draw; the main read-out is not listed here.
A potency from a partial, single-point or poor curve is only a rough figure.
The first word of each remark tells which way the curve ran; it can be opposite to the aim of the assay.

structure,AC50 (µM),remark
CC(C)[C@H](NC(=O)OC(C)(C)C)c1nnc(SCc2cccc(F)c2)o1,0.1585,"rising, full curve, poor fit"
COc1cc(-c2cc(C(=O)N3CCN(c4ccccn4)CC3)c3ccccc3n2)cc(OC)c1OC,0.03162,"falling, full curve, poor fit"
Brc1ccccc1-c1nnc(CSc2nnnn2-c2ccccc2)o1,0.007943,"falling, full curve"
COc1ccccc1OCC(=O)Nc1cccc(C(=O)N2CCOCC2)c1,5.012,"rising, partial curve"
Cc1cccc2cc(CN(CC3CCCO3)C(=O)c3cnccn3)c(=O)[nH]c12 (stereo not given),31.62,"rising, single point"
O=C(O)C(Cl)Cl,5.012,"falling, full curve"
CC(C)Sc1nc(O)c(Cc2ccccc2)c(=O)[nH]1,0.01,"rising, full curve"
Cc1cc(C(=O)N[C@H](c2ccccc2)[C@@]2(C)C[C@@H]2[C@@H](C)C(=O)Nc2ccc3ccccc3c2)n(C)n1,25.12,"falling, single point"
COCCn1c(=O)c(-c2cn(C)c3ccccc23)nc2cncnc21,7.943,"rising, partial curve, poor fit"
COCCn1c(=O)c(-c2cc(F)cc(F)c2)nc2cnc(N3CCNCC3)nc21,1.995,"rising, full curve"
Cc1nc2oc3c(NCc4ccccc4)ncnc3c2c2c1COC(C)(C)C2,7.943,"rising, partial curve"
CCOC(=O)N1CCN(c2c(N3CCc4ccccc43)c(=O)c2=O)CC1,10,"rising, partial curve"
Cc1ccc(-c2cc(-c3ccccc3Cl)[nH]n2)c(O)c1,10,"falling, partial curve"
N#Cc1c(N)nc(SCc2ccccc2)c(C#N)c1-c1ccco1,12.59,"falling, partial curve, poor fit"
O=C(CCN1CC2CCC(CC2)C1)c1cccs1,1,"rising, partial curve"
Cc1nc(NCC2CCCO2)[nH]c(=O)c1CCC(C)C (stereo not given),1.995,"falling, partial curve, poor fit"
COc1ccc(C(c2nnnn2Cc2ccc(F)cc2)N2CCN(c3ccccc3)CC2)cc1 (stereo not given),19.95,"falling, single point"
Cc1cc(NC(=O)CCC(=O)N(c2cccnc2)C(C(=O)NC2CCCC2)c2ccccc2F)no1 (stereo not given),1.585,"rising, partial curve, poor fit"
Nc1cc(Br)c(N)c(Br)c1,6.31,"falling, partial curve"
c1nc(NC2CCCCCC2)c2[nH]cnc2n1,10,"falling, partial curve"
Cc1nc(CNS(=O)(=O)c2ccccc2F)cs1,3.981,"rising, single point"
COc1ccc(C2C(C#N)=C(N)Oc3n[nH]c(C)c32)cc1CN1CCN(c2ccc(F)cc2)CC1 (stereo not given),31.62,"falling, single point"
Cn1cccc1Cc1nnc(SCC(=O)NCCc2ccccc2)n1-c1ccc(F)cc1,5.012,"rising, single point"
CCOc1ccccc1OCC(=O)Nc1ccc(N2CCCCC2)cc1,5.012,"rising, single point"
Cc1noc(C)c1C(=O)N1CCC2(CC1)CN(Cc1cc(C(F)(F)F)cc(C(F)(F)F)c1)C2,12.59,"falling, partial curve"
CCNc1ncc2nc(-c3ccccc3)c(=O)n(CCC#N)c2n1,7.943,"rising, partial curve"
COc1ccc(-c2cc3ccc(OCc4nn[nH]n4)cc3oc2=O)cc1,6.31,"rising, partial curve"
CCCCC(c1nnnn1Cc1ccco1)N1CCN(C(=O)c2ccco2)CC1 (stereo not given),25.12,"rising, single point"
CC(C)c1ccc(C(=O)Nc2ccc(N3CCOCC3)cc2)cc1,15.85,"falling, partial curve"
CCOC(=O)N1CCC(Nc2cc(C)nc3c(-c4ccccc4OC)c(C)nn23)CC1,1.995,"rising, partial curve"
COc1ccc(O)c(C(=O)CC(=O)c2ccc(F)cc2)c1,10,"falling, partial curve"
CCN(CC)S(=O)(=O)c1ccc(NC2c3ccccc3C(=O)N2CCN2CCOCC2)cc1 (stereo not given),31.62,"rising, single point"
O=C(Cc1c(O)c2ccccc2[nH]c1=O)NCc1cccc(F)c1,31.62,"rising, single point"
CN1CCN(c2ncc3nc(-c4ccc(Cl)cc4)c(=O)n(Cc4ccc(F)cc4)c3n2)CC1,1.259,"rising, full curve"
Cc1[nH]n(C(N)=S)c(=O)c1C(c1ccccc1)C(C#N)C#N (stereo not given),15.85,"rising, partial curve"
NC(=O)CC1(CC(=O)O)CCCCC1,10,"falling, partial curve, poor fit"
O=C(Nc1ccc(Br)cc1F)C1CCN(c2nnc(-n3cccc3)s2)CC1,6.31,"falling, partial curve"

Some entries from above, unchanged:

structure	AC50 (µM)	remark
Nc1cc(Br)c(N)c(Br)c1	6.31	falling, partial curve
COc1ccc(-c2cc3ccc(OCc4nn[nH]n4)cc3oc2=O)cc1	6.31	rising, partial curve
O=C(Nc1ccc(Br)cc1F)C1CCN(c2nnc(-n3cccc3)s2)CC1	6.31	falling, partial curve

Source: PubChem BioAssay AID912 (NCATS, 2007).